From patent US20250134869A1, “Pyrrolo[2,3-d]pyrimidinyl, Pyrrolo[2,3-b]pyrazinyl and Pyrrolo[2,3-d]pyridinyl Acryla-mides” (Pfizer Inc, priority 2021, published 2025)

Test: Stability of JAK3 covalent inhibitors in human whole blood
Conditions: 1 μM, 37° C.

Human blood stability t1/2	SMILES
>5.975 h	C=CC(=O)N1[C@H]2CC[C@@H]1[C@H](Nc1ncnc3[nH]ccc13)CC2 [Example 16, 1-((1R,2R,5R)-2-((7H-Pyrrolo[2,3-d]pyrimidin-4-yl)amino)-8-azabicyclo[3.2.1]octan-8-yl)prop-2-en-1-one]
>6 h	C=CC(=O)N1C2CCC(Nc3ncnc4[nH]ccc34)C1CC2 (centres unmarked) [Example 56, 1-(2-((7H-Pyrrolo[2,3-d]pyrimidin-4-yl)amino)-8-azabicyclo[3.2.1]octan-8-yl)prop-2-en-1-one]
